Experimental data reported in PubChem BioAssay AID1508600 (Functional Genomics Laboratory (NCATS/FGL), 2020).
In all, about 53,000 sequences went through this assay and about 3,700 (7%) were called active.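 Rule for the calls: active = gene knockdowns whose robust z-score for IL-1 alpha signal is at least 2 or at most -2, so actives lie on both sides; inactive = the rest.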 The list shows a part of the results.

experiment: Components of the Cytosolic LPS Sensing Pathway: Gene Identification via Genome-wide siRNA Screen; conditions: RAW264.7 macrophages, IL-1a HTRF, actives lie on both sides, screened at 100 nM (by protocol), cells primed 5 h with Pam3CSK4 first;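 note: robust z of the log signal after scaling to non-targeting control siRNA wells of the plate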
Method in brief: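 Knockdown: 100 nM siRNA, 48h, RAW264.7. Stimulation: Pam3CSK4 5 h, then LipidA via TransIT-TKO 24 h. Output: supernatant IL-1a HTRF, negative-control-normalized, log robust z-score; viability by CellTiter-Glo.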

Sequence	z-score
GCUACUACGGCCAUUGUGATT against Fbln2	inactive: -1.39
GGACAGGAACCAAAAUGAGTT against Sfxn2	inactive: -1.17
GGAAGAAUUUAAGAAGUUCTT against Pdia3	inactive: 1.24
GCAUACUUUUGUCAAGUCCTT against Moxd2	inactive: 0.68
GCCAUCGAUACCACAACACTT against Slfn8	inactive: -1.61
GGCUCCAUUAAACUAAUCATT against Olfr1102	inactive: -0.563
GCAGACCCAAAAGCAUUAATT against Zbtb38	inactive: 0.223
GCAGUUAUUCUGAAAGCAATT against Olfr1386	inactive: -1.76
CCCGGUAUUAAAUUUAAUGTT against Aox4	inactive: 0.807
CCAACGUGCAGAAAUGUCUTT against Metrn	inactive: 0.671
CCCUGAACAGGUCAUCUGUTT against Ctps2	inactive: 0.822
GCGUAAUGCUAGGAGAAGCTT against Celsr3	inactive: -0.659
GGACCACUAUAUCUUAACUTT against Cdh23	inactive: 1.12
GGGACAAAAGCAAUCAAACTT against H2-M11	active: 2.06
GCACAUGUUCCUUACUUAUTT against Calcr	inactive: 0.656
GCAUUGCUAUUCAACUCCUTT against Marcks	inactive: -0.427
GUUCCUGAGUACCUAUGUCTT against Aqp7	inactive: -0.254
GCUGAGUCCAUUGAAGAAGTT against Pebp4	inactive: 0.255
GGACAUCACAGCAUAUCGUTT against Peli2	inactive: -1.53
GGUGUGAUGCUUGAGUGUCTT against Skint3	active: 2.08
GGGUAGUCACUCAAUAAAUTT against Pear1	inactive: -0.54
CCUAGCCAUGUGGUCAUAGTT against Tex264	inactive: 1.63

Sequence	z-score
CCCACUUCUAUUGAGUCUGTT against Ppif	inactive: 0.193
GCAAAUAGUUGGGUAGGAGTT against Taz	inactive: -0.77
GGUGUGAGGUAAUUUCAGATT against Snx22	inactive: 1.69
GGAGUAUCUAUGCUCAAUATT against Olfr794	inactive: -1.49
GGUCUUGUAGAAAUUUGCCTT against Slc25a21	inactive: -0.0695
GCGUGGAUAGUUUCACAGCTT against Fbp1	inactive: -0.142
GGAAGAGAUCCUAAUAAAGTT against Depdc7	inactive: 0.294
GCUAGUGCGCAUGUUUCUCTT against Rasgrp2	inactive: 0.621
GCUAAUCCAGGUAUUGUCATT against Uba6	inactive: -0.262
GGCUUUUUCCUCUACCCACTT against Trhde	inactive: -0.436
GGCGAAAUGAACACAAAGCTT against Edf1	inactive: 0.983
GCGCAUUCUGAUAUUUUCUTT against Dennd11	inactive: -0.0987
GGUUGGCAAUAAGUAUUACTT against Lpin1	inactive: 1.47
CCCAGAAUUAAACAUAGCUTT against Rrh	inactive: 0.0181
GGCGUGGAAUCACUUUCCATT against Ankrd13b	inactive: -1.15
GGAGACACCAGACCAACAATT against Gm5458	inactive: 0.242
GGAAGGCAAAUUCAAAUACTT against Serpinc1	inactive: 1.65
GGAAGUCAAGAAGAAACCGTT against Morc4	inactive: 0.399
GACAGCAUGAAGGACCUCUTT against Il17c	inactive: 0.3
CCGUGGCAACUGGUAUUAUTT against Spns3	inactive: -0.548
GCUUUCUUUUGCACUUGAATT against Ctc1	inactive: -1.1
GGCGCAUCGUGGACUUCUUTT against Slc36a1	inactive: 0.866

Sequence	z-score
CGUGUGGUGUUGGUAUCAGTT against Spaca1	inactive: 0.853
GGUAGACCAGGAUUCAAAGTT against B3galt2	inactive: 0.306
GGGAGAAGCGAGCAAUAGATT against Pla2g3	inactive: -0.198
CGUUGCAGUCUAAGCUUGUTT against Rabac1	active: 4.44
GGACCUUCAGGAAAUGGCUTT against Mrps14	inactive: -0.958
CGUGCAAGAAUGUAUUAGATT against Myo5a	inactive: -0.282
GCACAAUUGCUCUAGGAUGTT against Slitrk3	inactive: -1.92
GCGAGAAGGAUUCACCUUCTT against Atg7	inactive: -0.297
CCUUCUCAACAGCGUGAUUTT against Dhx30	inactive: 0.474
GCUUGGUUUAACAAACAAGTT against Ppm1a	inactive: 0.504
GGACCACAUUACUAUACCATT against Sort1	inactive: 0.098
GGAUACUGUCAUGUCUUUATT against Olfr1	inactive: 0.813
GGAUGAGAAAGAAAAGCACTT against Mettl1	inactive: -0.615
CGUAGAGCUUCUCAUAUUATT against Olfr1436	inactive: -1.48
GGAGAUCUAUUGGAUCCAUTT against Trim12a	inactive: 0.337
GCUUAUGACUUAAAAGCCCTT against Zfp157	inactive: 0.452
GCCUACAUCAUGUAAUAUATT against Cyp2s1	inactive: -0.0444
GCCCGUGUGUAAGUGCAAATT against Wfikkn2	active: 2.25
GGCAUUUACUUACUGUUCATT against Slc39a10	inactive: -0.331
CCGCUGUGAUACCAUAUACTT against Nrn1l	inactive: -1.52
GGAGAUCCUUAAGCUGUUGTT against Aen	active: -2.37
CGUACCAAAUGCUAACAUUTT against Fam160a2	inactive: 0.429

Sequence	z-score
CGCGAAUCUAUGAAUCAAATT against Prpf38a	inactive: 1.28
GGGAGAAGUUCUGUAUAUUTT against Prdm5	inactive: 0.00692
CGAAGAAGAAAUCUUUGGATT against Opn5	inactive: 0.494
CCACUAUCCCACCAAUCACTT against Lypd8	inactive: -1.03
CCAUCUAUGUGAGGUAUUATT against Tapbpl	inactive: -1.3
CCAUUUGACGAAGGUAAUATT against Olfr180	inactive: 0.257
GGAAGGUGGUGUCAAAAUGTT against Septin3	inactive: 0.96
GGAAAAGGAAGAACUGAUUTT against Sptlc1	inactive: -0.477
GCCUUGUGGGAAGCAAAAATT against Pcyt2	inactive: -0.561
GGUCCUACCUCAACAUCUGTT against Cap2	inactive: 0.653
GGGUCAAUCAGAAGCUAGGTT against Creb3l4	inactive: -0.573
GGAGUUUUCAUGCCUACAATT against Odam	active: 2.58
CCUUGAGAAUAUGCUAAAATT against Abca15	inactive: 1.62
CCGUGGACUAUAACAACUCTT against Mgat5b	inactive: 1.61
GGAACCUAAAACACUAAACTT against Zfp938	inactive: -0.0254
GGUUACAGAACUCAACAAUTT against Dok5	inactive: -0.0315
GGAAGUUAGUGAGUCUAUGTT against Rel	inactive: 1.9
GGAAUAGGCCUUCUUGCUGTT against Matr3	inactive: -0.395
GGUUCAUUCUCUGCAUUAATT against Rpp40	inactive: -0.92
GCGACCAGCUCUUUUAUACTT against Plod1	inactive: 0.642
GGGCAUCCUGCUAGGCUUUTT against Adcy8	inactive: -0.191
GGAAAAAGCUACUGAGUCCTT against Cx3cl1	inactive: -0.301

6 records picked at random from the list so far:
Sequence	z-score
CCUUGAGAAUAUGCUAAAATT against Abca15	inactive: 1.62
CGAAGAAGAAAUCUUUGGATT against Opn5	inactive: 0.494
GGUCCUACCUCAACAUCUGTT against Cap2	inactive: 0.653
GGGAGAAGUUCUGUAUAUUTT against Prdm5	inactive: 0.00692
GGAGUUUUCAUGCCUACAATT against Odam	active: 2.58
CCAUCUAUGUGAGGUAUUATT against Tapbpl	inactive: -1.3

(cont.)

Sequence	z-score
GCUGUUUCUCUAAUAACACTT against Nckap5	inactive: -0.651
GCACGCUCUUCAUUCGACATT against Catsperg2	inactive: -0.941
GGUUAAAAUUGGCUAAAUGTT against Sertm1	inactive: 1.5
GGUUUUCCCACUCUUUCACTT against Smg8	inactive: 0.362
GGGUGAGCAAGGUUGUAAUTT against Pdgfb	inactive: 0.793
GGAGUCUCCUUAUAUUAAUTT against Alcam	inactive: 0.896
GGACAUCGCAUAUCAGCUATT against Alpl	inactive: -1.62
GGUUUGCCCAGGAAUACAATT against Adprhl2	inactive: 0.48
GGUAUGUGAUACAUCUAUUTT against Zfp52	inactive: -1
CCAUCAAAACUUACCUCACTT against Rrp12	inactive: 0.669
CCUUCCUAAUCUCUUGUUCTT against Rfc4	inactive: 1.08
GGAUGUGCUGACCUUACAGTT against Gaa	active: 2.35
GGGUUUUACCAUGGAAUUCTT against Med18	inactive: 0.793
GGCCCUCAACCUAAUUAUGTT against Sec24c	inactive: 0.00831
GGAAAUGCAUCCAUGCGGUTT against Arhgap26	inactive: 0.404
GUAAGUUGUUUGAGGAAAGTT against Defb3	active: 2.08
GGAAGAGGCUAUUGCAUCGTT against Atrnl1	inactive: -0.768
GGAUGAUCAAAGCAUUGAUTT against Dmtf1	inactive: -0.368
GUGGCAGAAAACACUGCCATT against Coa3	inactive: 0.854
